{"sequences": {"note": "By UniProt entry, the sequences of proteins in these tests, tags left out. Where a name states a change or a piece, a line headed by the entry shows the natural chain unless it says otherwise.", "UniProt P52294, whole entry, looked up": "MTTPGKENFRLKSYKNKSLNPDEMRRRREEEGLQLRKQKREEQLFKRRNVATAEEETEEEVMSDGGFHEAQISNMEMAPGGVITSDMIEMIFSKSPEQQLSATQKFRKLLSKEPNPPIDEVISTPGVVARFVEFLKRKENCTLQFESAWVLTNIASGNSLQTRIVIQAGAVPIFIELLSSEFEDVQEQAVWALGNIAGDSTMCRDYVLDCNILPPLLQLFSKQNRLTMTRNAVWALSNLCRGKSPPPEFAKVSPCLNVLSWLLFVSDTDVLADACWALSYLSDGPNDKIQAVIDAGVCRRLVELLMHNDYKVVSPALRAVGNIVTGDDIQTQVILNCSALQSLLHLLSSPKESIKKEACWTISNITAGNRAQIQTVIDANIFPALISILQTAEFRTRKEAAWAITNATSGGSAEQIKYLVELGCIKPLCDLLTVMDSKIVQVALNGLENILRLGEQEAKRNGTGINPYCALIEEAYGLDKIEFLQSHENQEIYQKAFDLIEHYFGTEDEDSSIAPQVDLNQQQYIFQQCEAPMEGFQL", "UniProt Q1ED39": "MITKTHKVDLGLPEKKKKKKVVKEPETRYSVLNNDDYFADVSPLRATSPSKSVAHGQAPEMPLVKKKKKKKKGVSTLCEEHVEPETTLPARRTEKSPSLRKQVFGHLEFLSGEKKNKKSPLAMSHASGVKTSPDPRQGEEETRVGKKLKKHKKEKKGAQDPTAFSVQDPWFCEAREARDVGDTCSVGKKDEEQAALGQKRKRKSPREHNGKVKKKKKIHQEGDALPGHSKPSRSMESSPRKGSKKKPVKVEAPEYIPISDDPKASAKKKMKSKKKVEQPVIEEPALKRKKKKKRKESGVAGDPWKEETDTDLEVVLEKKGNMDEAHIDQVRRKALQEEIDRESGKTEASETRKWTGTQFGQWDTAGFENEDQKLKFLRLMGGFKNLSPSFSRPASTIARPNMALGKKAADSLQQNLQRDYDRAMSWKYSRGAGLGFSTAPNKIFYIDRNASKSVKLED", "UniProt Q9GZZ8": "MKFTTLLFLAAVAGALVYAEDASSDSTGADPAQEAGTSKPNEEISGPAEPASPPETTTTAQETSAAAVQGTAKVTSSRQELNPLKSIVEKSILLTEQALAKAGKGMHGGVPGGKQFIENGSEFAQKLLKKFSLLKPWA", "UniProt Q9H1H9": "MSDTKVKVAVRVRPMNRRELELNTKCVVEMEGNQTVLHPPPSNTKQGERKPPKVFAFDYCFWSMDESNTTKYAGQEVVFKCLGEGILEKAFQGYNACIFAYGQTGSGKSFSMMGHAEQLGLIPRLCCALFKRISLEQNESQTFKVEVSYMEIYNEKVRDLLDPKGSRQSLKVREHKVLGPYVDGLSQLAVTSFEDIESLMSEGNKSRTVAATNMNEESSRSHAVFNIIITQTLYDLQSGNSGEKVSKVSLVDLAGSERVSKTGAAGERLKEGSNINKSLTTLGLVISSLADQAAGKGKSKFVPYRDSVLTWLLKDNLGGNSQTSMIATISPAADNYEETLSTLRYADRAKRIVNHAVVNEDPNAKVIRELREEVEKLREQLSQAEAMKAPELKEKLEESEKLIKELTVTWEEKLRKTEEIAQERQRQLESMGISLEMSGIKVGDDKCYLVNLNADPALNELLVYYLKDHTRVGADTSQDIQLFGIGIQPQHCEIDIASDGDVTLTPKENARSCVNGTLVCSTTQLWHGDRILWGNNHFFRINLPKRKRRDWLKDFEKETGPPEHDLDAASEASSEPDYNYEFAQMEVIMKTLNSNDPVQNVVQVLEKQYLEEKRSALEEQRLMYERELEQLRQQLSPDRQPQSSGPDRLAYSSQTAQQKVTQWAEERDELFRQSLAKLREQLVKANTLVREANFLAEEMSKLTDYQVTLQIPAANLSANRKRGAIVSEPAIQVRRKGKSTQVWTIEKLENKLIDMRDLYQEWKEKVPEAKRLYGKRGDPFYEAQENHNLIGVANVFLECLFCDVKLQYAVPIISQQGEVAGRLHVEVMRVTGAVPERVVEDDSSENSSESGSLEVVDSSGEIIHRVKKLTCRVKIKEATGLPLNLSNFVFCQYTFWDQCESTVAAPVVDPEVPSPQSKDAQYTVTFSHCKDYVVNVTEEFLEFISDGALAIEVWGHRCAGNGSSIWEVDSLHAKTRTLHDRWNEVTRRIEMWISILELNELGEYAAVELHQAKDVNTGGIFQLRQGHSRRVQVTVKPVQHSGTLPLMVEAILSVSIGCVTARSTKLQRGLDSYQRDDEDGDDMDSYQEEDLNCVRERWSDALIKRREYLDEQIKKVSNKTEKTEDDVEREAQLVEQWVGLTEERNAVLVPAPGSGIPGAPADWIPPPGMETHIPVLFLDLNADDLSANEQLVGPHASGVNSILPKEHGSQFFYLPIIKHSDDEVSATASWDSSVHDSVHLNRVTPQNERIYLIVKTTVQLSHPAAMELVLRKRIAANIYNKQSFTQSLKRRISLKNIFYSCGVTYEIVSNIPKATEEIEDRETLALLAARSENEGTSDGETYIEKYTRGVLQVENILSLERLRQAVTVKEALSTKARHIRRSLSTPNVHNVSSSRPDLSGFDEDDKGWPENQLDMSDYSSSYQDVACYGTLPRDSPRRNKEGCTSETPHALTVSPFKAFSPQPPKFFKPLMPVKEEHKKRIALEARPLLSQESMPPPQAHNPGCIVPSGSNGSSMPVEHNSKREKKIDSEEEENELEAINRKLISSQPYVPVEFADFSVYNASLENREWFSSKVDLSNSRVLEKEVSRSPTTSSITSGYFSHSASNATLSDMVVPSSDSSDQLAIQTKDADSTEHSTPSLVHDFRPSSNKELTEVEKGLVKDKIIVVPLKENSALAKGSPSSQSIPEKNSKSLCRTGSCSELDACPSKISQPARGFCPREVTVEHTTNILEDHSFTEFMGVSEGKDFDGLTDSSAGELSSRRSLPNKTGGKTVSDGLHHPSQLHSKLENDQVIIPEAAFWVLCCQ", "UniProt A5PL33": "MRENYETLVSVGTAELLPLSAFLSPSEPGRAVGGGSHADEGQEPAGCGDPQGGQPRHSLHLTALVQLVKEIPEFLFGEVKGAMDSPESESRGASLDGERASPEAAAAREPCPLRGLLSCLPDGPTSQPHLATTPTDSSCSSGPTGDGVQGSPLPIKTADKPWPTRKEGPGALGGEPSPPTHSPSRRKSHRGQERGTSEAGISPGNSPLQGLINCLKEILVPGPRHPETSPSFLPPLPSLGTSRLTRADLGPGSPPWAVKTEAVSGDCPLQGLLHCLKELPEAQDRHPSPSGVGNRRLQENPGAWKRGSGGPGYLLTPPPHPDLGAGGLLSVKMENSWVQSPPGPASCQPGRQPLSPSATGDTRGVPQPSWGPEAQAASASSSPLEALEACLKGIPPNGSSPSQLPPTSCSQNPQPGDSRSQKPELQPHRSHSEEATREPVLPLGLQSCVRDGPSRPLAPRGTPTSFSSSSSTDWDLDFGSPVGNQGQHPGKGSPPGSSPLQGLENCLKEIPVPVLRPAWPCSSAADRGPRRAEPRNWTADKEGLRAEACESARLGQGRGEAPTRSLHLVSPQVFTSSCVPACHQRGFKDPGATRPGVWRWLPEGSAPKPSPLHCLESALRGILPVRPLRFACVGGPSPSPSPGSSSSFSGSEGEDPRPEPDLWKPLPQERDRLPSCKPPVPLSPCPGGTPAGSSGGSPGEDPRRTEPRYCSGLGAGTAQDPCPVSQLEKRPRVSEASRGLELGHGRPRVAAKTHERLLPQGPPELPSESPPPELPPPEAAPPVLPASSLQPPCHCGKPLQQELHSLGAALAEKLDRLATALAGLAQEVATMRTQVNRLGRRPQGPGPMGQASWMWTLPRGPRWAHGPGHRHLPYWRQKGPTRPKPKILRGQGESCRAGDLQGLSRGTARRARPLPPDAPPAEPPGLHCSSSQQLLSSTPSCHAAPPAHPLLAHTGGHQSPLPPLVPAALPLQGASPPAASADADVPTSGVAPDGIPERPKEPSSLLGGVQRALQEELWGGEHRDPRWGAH", "UniProt Q9BQD3": "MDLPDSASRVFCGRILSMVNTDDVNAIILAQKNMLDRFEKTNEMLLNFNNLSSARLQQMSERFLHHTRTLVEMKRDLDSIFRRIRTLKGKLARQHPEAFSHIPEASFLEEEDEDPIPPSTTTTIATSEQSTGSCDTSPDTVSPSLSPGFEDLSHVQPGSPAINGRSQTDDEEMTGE", "UniProt O95239": "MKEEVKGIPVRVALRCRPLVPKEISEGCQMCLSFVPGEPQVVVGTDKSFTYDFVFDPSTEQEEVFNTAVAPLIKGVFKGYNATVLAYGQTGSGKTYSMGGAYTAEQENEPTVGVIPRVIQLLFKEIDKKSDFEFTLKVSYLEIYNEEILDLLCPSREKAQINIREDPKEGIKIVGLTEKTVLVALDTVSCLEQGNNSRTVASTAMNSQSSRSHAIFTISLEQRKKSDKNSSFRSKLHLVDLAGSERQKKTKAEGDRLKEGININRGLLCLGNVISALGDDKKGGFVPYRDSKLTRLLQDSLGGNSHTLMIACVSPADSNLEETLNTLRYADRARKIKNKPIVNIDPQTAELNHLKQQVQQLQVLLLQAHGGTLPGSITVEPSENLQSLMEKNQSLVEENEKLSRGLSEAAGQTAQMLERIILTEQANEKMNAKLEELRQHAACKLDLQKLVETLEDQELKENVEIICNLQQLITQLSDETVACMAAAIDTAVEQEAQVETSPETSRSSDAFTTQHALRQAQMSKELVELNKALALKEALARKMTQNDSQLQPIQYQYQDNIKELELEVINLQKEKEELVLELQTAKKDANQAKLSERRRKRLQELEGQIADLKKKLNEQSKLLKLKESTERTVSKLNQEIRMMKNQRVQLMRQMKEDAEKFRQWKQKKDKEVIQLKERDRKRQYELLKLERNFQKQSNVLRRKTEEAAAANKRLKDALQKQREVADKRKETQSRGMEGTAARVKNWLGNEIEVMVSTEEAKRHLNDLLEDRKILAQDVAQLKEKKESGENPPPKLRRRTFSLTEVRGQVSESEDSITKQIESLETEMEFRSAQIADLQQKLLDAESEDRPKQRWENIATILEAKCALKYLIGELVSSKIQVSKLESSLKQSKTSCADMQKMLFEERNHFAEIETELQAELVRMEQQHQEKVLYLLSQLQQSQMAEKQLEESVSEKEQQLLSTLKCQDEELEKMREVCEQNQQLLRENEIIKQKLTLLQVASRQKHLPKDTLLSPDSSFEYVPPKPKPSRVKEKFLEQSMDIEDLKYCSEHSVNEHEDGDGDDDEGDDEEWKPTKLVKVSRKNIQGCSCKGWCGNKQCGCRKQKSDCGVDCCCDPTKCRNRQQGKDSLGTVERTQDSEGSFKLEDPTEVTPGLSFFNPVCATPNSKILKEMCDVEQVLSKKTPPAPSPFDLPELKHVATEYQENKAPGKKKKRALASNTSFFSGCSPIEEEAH", "UniProt Q53H82": "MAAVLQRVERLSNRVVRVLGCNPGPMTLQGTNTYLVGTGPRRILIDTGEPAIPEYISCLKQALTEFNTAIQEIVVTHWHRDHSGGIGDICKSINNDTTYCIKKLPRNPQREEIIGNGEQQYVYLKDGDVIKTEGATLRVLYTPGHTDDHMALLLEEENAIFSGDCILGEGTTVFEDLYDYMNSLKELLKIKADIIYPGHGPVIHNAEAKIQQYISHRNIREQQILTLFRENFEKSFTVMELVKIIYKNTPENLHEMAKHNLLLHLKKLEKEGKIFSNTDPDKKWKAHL", "UniProt O43813, whole entry, looked up": "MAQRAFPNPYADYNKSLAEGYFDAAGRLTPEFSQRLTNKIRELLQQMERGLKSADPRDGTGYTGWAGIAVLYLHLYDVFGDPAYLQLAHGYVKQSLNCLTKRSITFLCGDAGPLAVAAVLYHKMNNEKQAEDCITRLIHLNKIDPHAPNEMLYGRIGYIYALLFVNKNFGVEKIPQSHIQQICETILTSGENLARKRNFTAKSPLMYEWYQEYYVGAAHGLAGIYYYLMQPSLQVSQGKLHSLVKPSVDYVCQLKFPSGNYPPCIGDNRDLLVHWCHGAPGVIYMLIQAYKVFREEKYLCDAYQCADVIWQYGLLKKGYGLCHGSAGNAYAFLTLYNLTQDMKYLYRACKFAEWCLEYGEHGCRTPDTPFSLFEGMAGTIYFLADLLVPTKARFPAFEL", "UniProt Q8N371": "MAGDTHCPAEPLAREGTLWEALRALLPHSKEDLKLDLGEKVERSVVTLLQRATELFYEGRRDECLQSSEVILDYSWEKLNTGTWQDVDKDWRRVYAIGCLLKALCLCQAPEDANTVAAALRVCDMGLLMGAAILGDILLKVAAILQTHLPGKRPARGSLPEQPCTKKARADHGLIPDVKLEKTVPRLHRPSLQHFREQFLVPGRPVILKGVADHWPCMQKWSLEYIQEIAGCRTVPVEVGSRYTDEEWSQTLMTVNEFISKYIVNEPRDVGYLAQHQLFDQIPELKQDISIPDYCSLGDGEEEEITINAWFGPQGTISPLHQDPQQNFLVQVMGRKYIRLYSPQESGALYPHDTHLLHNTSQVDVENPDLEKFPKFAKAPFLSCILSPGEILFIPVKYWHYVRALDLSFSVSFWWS"}, "source": "the supplement of paper PMC10849652", "note": "This is one part of the list.", "data": [{"compound": "CS(=O)(=O)CCNCc1ccc(-c2ccc3ncnc(Nc4ccc(OCc5cccc(F)c5)c(Cl)c4)c3c2)o1 [lapatinib]", "test": "log2 fold change, soluble protein after heating vs DMSO (PISA); higher = thermal stabilisation; K562 lysate, 10 uM; active = over 0.2 and 3.5 SD of the protein, either way, in both replicates (recomputed)", "summary_of_the_method": "(§1)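 K562 pellets were dounce-homogenised in PBS pH 7.4 with 1 mM MgCl2, and the crude extract at 1 mg/mL protein was treated with 10 μM compound for 30 min. Aliquots were heated for 3 min across 48°C-58°C, pooled, and brought to 0.5% NP-40 at 4°C; soluble protein was the supernatant after 21,000xg for 90 min. Soluble protein was quantified by TMTpro 16plex LC-MS/MS with channel sums equalised, and reported as log2 fold change in thermal stability against DMSO controls, with values from duplicates.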", "values": [{"target": "KTI12 (UniProt Q96EK9)", "log2 fold change": "inactive: 0.029"}, {"target": "LAMTOR2 (UniProt Q9Y2Q5)", "log2 fold change": "inactive: 0.046"}, {"target": "KIF5B (UniProt P33176)", "log2 fold change": "inactive: -0.019"}, {"target": "KIF23 isoform 2 (UniProt Q02241)", "log2 fold change": "inactive: -0.017"}, {"target": "KPNA1 (UniProt P52294)", "log2 fold change": "inactive: -0.002"}, {"target": "KPNA3 (UniProt O00505)", "log2 fold change": "inactive: -0.034"}, {"target": "KPNA2 (UniProt P52292)", "log2 fold change": "inactive: -0.016"}, {"target": "LAMTOR5 (UniProt O43504)", "log2 fold change": "inactive: 0.042"}, {"target": "KNOP1 (UniProt Q1ED39)", "log2 fold change": "inactive: -0.046"}, {"target": "KIF5A (UniProt Q12840)", "log2 fold change": "inactive: -0.022"}, {"target": "KDM5B isoform 2 (UniProt Q9UGL1)", "log2 fold change": "inactive: -0.006"}, {"target": "LACRT (UniProt Q9GZZ8)", "log2 fold change": "inactive: 0.054"}, {"target": "KIAA1191 (UniProt Q96A73)", "log2 fold change": "inactive: -0.001"}, {"target": "KLC2 (UniProt Q9H0B6)", "log2 fold change": "inactive: -0.012"}, {"target": "KIF13A isoform 4 (UniProt Q9H1H9)", "log2 fold change": "inactive: -0.047"}, {"target": "KNSTRN (UniProt Q9Y448)", "log2 fold change": "inactive: 0.013"}, {"target": "KRBA1 (UniProt A5PL33)", "log2 fold change": "inactive: -0.155"}, {"target": "KXD1 (UniProt Q9BQD3)", "log2 fold change": "inactive: -0.033"}]}, {"compound": "CS(=O)(=O)N1CCN(Cc2cc3nc(-c4cccc5[nH]ncc45)nc(N4CCOCC4)c3s2)CC1 [pictilisib]", "test": "log2 fold change, soluble protein after heating vs DMSO (PISA); higher = thermal stabilisation; K562 lysate, 10 uM; active = over 0.2 and 3.5 SD of the protein, either way, in both replicates (recomputed)", "summary_of_the_method": "as §1", "values": [{"target": "LAMTOR1 (UniProt Q6IAA8)", "log2 fold change": "inactive: 0.014"}, {"target": "KHK isoform 2 (UniProt P50053)", "log2 fold change": "inactive: -0.015"}, {"target": "KNL1 (UniProt Q8NG31)", "log2 fold change": "inactive: -0.031"}, {"target": "LAMB1 (UniProt P07942)", "log2 fold change": "inactive: -0.029"}, {"target": "KIF4A (UniProt O95239)", "log2 fold change": "inactive: -0.002"}, {"target": "KHDRBS1 (UniProt Q07666)", "log2 fold change": "inactive: 0.024"}, {"target": "L1RE1 (UniProt Q9UN81)", "log2 fold change": "inactive: -0.002"}, {"target": "LARP7 isoform 3 (UniProt Q4G0J3)", "log2 fold change": "inactive: -0.005"}, {"target": "KLC4 isoform 3 (UniProt Q9NSK0)", "log2 fold change": "inactive: -0.053"}, {"target": "L2HGDH (UniProt Q9H9P8)", "log2 fold change": "inactive: -0.018"}, {"target": "KSR1 (UniProt Q8IVT5)", "log2 fold change": "inactive: 0.064"}, {"target": "KIAA0930 isoform 2 (UniProt Q6ICG6)", "log2 fold change": "inactive: 0.016"}, {"target": "LACTB2 (UniProt Q53H82)", "log2 fold change": "inactive: -0.022"}, {"target": "LANCL1 (UniProt O43813)", "log2 fold change": "inactive: -0.033"}, {"target": "LAMP2 (UniProt P13473)", "log2 fold change": "inactive: -0.067"}, {"target": "KHSRP (UniProt Q92945)", "log2 fold change": "inactive: -0.008"}, {"target": "KDM8 isoform 3 (UniProt Q8N371)", "log2 fold change": "inactive: -0.032"}, {"target": "KLHL18 (UniProt O94889)", "log2 fold change": "inactive: 0.008"}, {"target": "KPTN (UniProt Q9Y664)", "log2 fold change": "inactive: 0.026"}, {"target": "KIF15 (UniProt Q9NS87)", "log2 fold change": "inactive: 0.006"}, {"target": "KYAT3 (UniProt Q6YP21)", "log2 fold change": "inactive: -0.006"}, {"target": "KIF3A (UniProt Q9Y496)", "log2 fold change": "inactive: 0.072"}, {"target": "KTI12 (UniProt Q96EK9)", "log2 fold change": "inactive: 0.023"}, {"target": "LAMTOR2 (UniProt Q9Y2Q5)", "log2 fold change": "inactive: -0.071"}, {"target": "KIF5B (UniProt P33176)", "log2 fold change": "inactive: 0.006"}, {"target": "KIF23 isoform 2 (UniProt Q02241)", "log2 fold change": "inactive: 0.052"}, {"target": "KPNA1 (UniProt P52294)", "log2 fold change": "inactive: -0.056"}, {"target": "KPNA3 (UniProt O00505)", "log2 fold change": "inactive: -0.03"}, {"target": "KPNA2 (UniProt P52292)", "log2 fold change": "inactive: 0.024"}, {"target": "LAMTOR5 (UniProt O43504)", "log2 fold change": "inactive: -0.089"}, {"target": "KNOP1 (UniProt Q1ED39)", "log2 fold change": "inactive: 0.03"}, {"target": "KIF5A (UniProt Q12840)", "log2 fold change": "inactive: -0.019"}, {"target": "KDM5B isoform 2 (UniProt Q9UGL1)", "log2 fold change": "inactive: -0.041"}, {"target": "KIAA1191 (UniProt Q96A73)", "log2 fold change": "inactive: -0.03"}, {"target": "KLC2 (UniProt Q9H0B6)", "log2 fold change": "inactive: -0.057"}, {"target": "KIF13A isoform 4 (UniProt Q9H1H9)", "log2 fold change": "inactive: -0.008"}, {"target": "KNSTRN (UniProt Q9Y448)", "log2 fold change": "inactive: 0.05"}, {"target": "KRBA1 (UniProt A5PL33)", "log2 fold change": "inactive: 0.021"}, {"target": "KXD1 (UniProt Q9BQD3)", "log2 fold change": "inactive: 0.115"}]}]}
